In PubChem BioAssay AID1347075 (National Center for Advancing Translational Sciences (NCATS), 2019):
Out of some 400,000 compounds screened, about 5,500 (1.4%) were called active. The shares of active, inactive and inconclusive entries below differ from those in the screen. The call rests on the fitted dose curve; in most records, active means well fitted cell-killing curve with a large enough effect; inconclusive means small, poorly fitted or top-dose-only effect, or effect the other way; inactive means flat fitted curve, though single readings scatter. Potencies beside an inconclusive call are fits to weak or partial responses and may not hold up.

experiment: qHTS assay for MDR1-selective chemotherapeutics: Primary screen using the parental adenocarcinoma cell KB-3-1; settings: KB-3-1 viability, CellTiter-Glo ATP luminescence, 72 h; series mostly up to 46.1 µM; further: nearly all actives have a fitted effect of over 60% in size
Procedure, shortened: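 Using CellTiter-Glo luminescence, growth of non-resistant KB-3-1 adenocarcinoma cells is assessed 72 h after pin-tool compound addition at 37 °C. Normalized responses across the concentration series yield fitted curves.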
Potency means the concentration at half of the fitted maximal effect.

Structure (SMILES)	Potency
CCCCCN(C(=O)CCC(=O)OCC(=O)c1ccc(CCC)cc1)c1c(N)n(CCCC)c(=O)[nH]c1=O	inconclusive: 29.1 µM [rising, single point]
CCOc1ccc(-c2c(C)nn3c(C)c(C(=O)NCc4cccc(OC)c4)cnc23)cc1OCC	inactive
Cc1ccc(NC(=O)c2ccc(S(=O)(=O)N3CC(C)CC(C)C3)cc2)cc1S(=O)(=O)N1CCOCC1 (centres undefined)	inconclusive: 18.4 µM [cytotoxic, single point]
COc1ccc(Cn2nnnc2C(c2ccccc2Cl)N2CCN(C3CCCC3)CC2)cc1 (centres undefined)	inconclusive: 20.6 µM [cytotoxic, single point]
CCOc1cc(C(=O)N(Cc2nc(-c3ccc(C)cc3)no2)C(C)C)cc(OCC)c1OCC	inactive
COC(=O)/C=C\C(C#N)(C#N)N=Cc1ccc(OC)cc1	inconclusive: 7.31 µM [cytotoxic, partial curve]
CCc1nc2c(OCc3cc(Cl)cc(Cl)c3)cccn2c1N(C=O)Cc1ccc(OC)cc1	inconclusive: 29.1 µM [cytotoxic, single point]
Brc1ccc(C2=Nn3c(nnc3-c3cccnc3)SC2)s1	inconclusive: 11.6 µM [rising, partial curve, poor fit]
COc1ccc(C2=NN(C(=O)CSc3cn(C)c4ccccc34)C(c3ccc(OC)cc3)C2)cc1 (centres undefined)	inconclusive: 13 µM [cytotoxic, partial curve, poor fit]
CCCCCC(=O)Nc1nc(C)c(-c2csc(Nc3cc(OC)ccc3OC)n2)s1	inconclusive: 29.1 µM [cytotoxic, single point]
C[C@@H]1C[C@H]2[C@@H]3CCC4=CC(=O)C=C[C@]4(C)[C@@]3(Cl)[C@@H](O)C[C@]2(C)[C@@]1(OC(=O)c1ccco1)C(=O)CCl	inconclusive: 29.1 µM [cytotoxic, single point]
CCN1CCN(c2ncc3c(n2)CC(c2cc(OC)c(OC)c(OC)c2)CC3=O)CC1 (centres undefined)	inconclusive: 1.3 µM [cytotoxic, full curve, poor fit]
COc1ccc(S(=O)(=O)c2snnc2C)cc1	inactive
CC1=Nc2ccccc2/C1=C/c1sc(=N)n(-c2nccs2)c1O	active: 7.31 µM
Cc1ccc(C(=O)C(C(=O)/C=C/c2ccccc2)=C2SCCCS2)cc1	active: 8.2 µM
COc1ccc(OC)c(C2c3c(-c4ccc(Br)cc4)n[nH]c3C(=O)N2c2ccc(Cl)cc2)c1 (centres undefined)	inconclusive: 29.1 µM [cytotoxic, single point]
Nc1ncnc2c(C3OC(CO)C(O)C3O)scc12 (centres undefined)	active: 0.103 µM
O=C(Nc1nc(-c2cccs2)cs1)c1ccco1	inconclusive: 32.6 µM [cytotoxic, single point]
C=CCn1c(SCc2c(C)noc2C)nc2sc3c(c2c1=O)CCC(C)C3 (centres undefined)	active: 4.11 µM
Nc1ncc(-c2ccc(-c3ccccc3)cc2F)cc1-c1ccccc1F	inconclusive: 18.4 µM [cytotoxic, single point]
CCOc1ccccc1-c1noc(CSc2nnc(-c3ccccc3)n2-c2cccc(C)c2)n1	inactive
Cc1ccc(-n2ncc(Br)c(Br)c2=O)cc1	inconclusive: 2.91 µM [cytotoxic, partial curve, poor fit]

Exported in markdown: 3 of the compounds above

| Structure (SMILES) | Potency |
| --- | --- |
| COc1ccc(C2=NN(C(=O)CSc3cn(C)c4ccccc34)C(c3ccc(OC)cc3)C2)cc1 (centres undefined) | inconclusive: 13 µM [cytotoxic, partial curve, poor fit] |
| CCCCCC(=O)Nc1nc(C)c(-c2csc(Nc3cc(OC)ccc3OC)n2)s1 | inconclusive: 29.1 µM [cytotoxic, single point] |
| C[C@@H]1C[C@H]2[C@@H]3CCC4=CC(=O)C=C[C@]4(C)[C@@]3(Cl)[C@@H](O)C[C@]2(C)[C@@]1(OC(=O)c1ccco1)C(=O)CCl | inconclusive: 29.1 µM [cytotoxic, single point] |

Continued:

Structure (SMILES)	Potency
c1nc(SSc2ncnc3nc[nH]c23)c2[nH]cnc2n1	active: 5.17 µM
c1ccc(CC2CCN(Cc3nc(-c4ccccc4)no3)CC2)cc1	inconclusive: 0.013 µM [cytotoxic, full curve]
COc1ccccc1C(=O)Nc1ccc(NC(=O)c2cccs2)cc1	inconclusive: 18.4 µM [cytotoxic, single point]
COc1ccc(-c2ccc(N3C(c4cc(OC)cc(OC)c4)=Cc4ccc(OC)cc4C3CC(C)=O)cc2)cc1 (centres undefined)	inconclusive: 18.4 µM [cytotoxic, single point]
C/C(N)=C(/C#N)C(=O)CSc1nc2cc(Cl)ccc2c(=O)n1-c1ccc(C)cc1	inactive
CCc1ccc(Nc2n[n+](-c3ccccc3)c(-c3c(Cl)cccc3Cl)s2)cc1	active: 23.1 µM
Cc1cccc(-c2cccc(NC(=O)C3CCCN(C(=O)c4cccnc4)C3)c2)c1 (centres undefined)	inactive
COc1ccccc1Cc1c(-c2ccc(OC)c(OC)c2)nc2ccc(Cl)cn12	inconclusive: 29.1 µM [cytotoxic, single point]
Clc1c(CSc2nc3ccccc3o2)nc2sccn12	inconclusive: 29.1 µM [cytotoxic, single point]
CC(NC(=O)c1ccccc1F)c1nnc(SCC(=O)NC2=NCCS2)n1C (centres undefined)	inconclusive: 0.82 µM [rising, full curve, poor fit]
Cc1[nH]c2ccccc2c1C(c1ccccn1)N1CCC(C)CC1 (centres undefined)	active: 18.4 µM
Cc1cccc(-n2c(SCC(N)=O)nc3c(c2=O)C2(CCCC2)Cc2ccccc2-3)c1	inconclusive: 16.4 µM [cytotoxic, single point]
CC(=O)Nc1nonc1-c1nc2ccccc2n1N(C(C)=O)C(C)=O	inconclusive: 29.1 µM [cytotoxic, partial curve, poor fit]
COc1cc(-c2c(C#N)c(N)nc3c2c(C)nn3-c2ccc(C)c(C)c2)cc(OC)c1OC	inconclusive: 9.2 µM [cytotoxic, partial curve, poor fit]
CC1Cc2ccccc2N1C(=O)COC(=O)c1c2c(nc3ccccc13)CCCCC2 (centres undefined)	inconclusive: 32.6 µM [cytotoxic, single point]
CC(C)c1ccc(CC(=O)N2CCC2(C)C(=O)Nc2ccc3c(c2)OCO3)cc1 (centres undefined)	inconclusive: 29.1 µM [cytotoxic, single point]
Cc1cc(C)c2c(CN3CCN(Cc4ccc5c(c4)OCO5)CC3)cc(=O)oc2c1	inconclusive: 29.1 µM [cytotoxic, single point]
O=C(Nc1cccnc1)c1cnn2c(C(F)F)cc(C3CC3)nc12	inactive
C[n+]1ccc(/C=C/c2ccc(C=S)cc2)c2ccccc21	inconclusive: 7.31 µM [cytotoxic, partial curve, poor fit]
CC(=O)NC(c1ccccc1)c1cc([N+](=O)[O-])c2cccnc2c1O (centres undefined)	inconclusive: 10.3 µM [cytotoxic, partial curve, poor fit]
Cc1ccc(C)c(NC(=S)Nc2cccc3cnccc23)c1	inconclusive: 29.1 µM [cytotoxic, single point]
CCC(C(=O)N1CCN(c2ccccn2)CC1)n1nc(C)n2c(cc3occc32)c1=O (centres undefined)	inconclusive: 29.1 µM [cytotoxic, single point]

Structure (SMILES)	Potency
CC(=O)N(C)c1ccc(NC(=O)Nc2ccc(C)c(C)c2)cc1	inconclusive: 29.1 µM [cytotoxic, single point]
CCS(=O)(=O)N1Cc2cc(C(=O)NCC3CC3)nc(-c3cccc(-c4cccnc4)c3)c2[C@@H]1CCO	inconclusive: 25.9 µM [cytotoxic, single point]
COc1ccc(C(=O)/C=C/c2ccccc2F)c(OC(=O)c2ccc([N+](=O)[O-])cc2)c1	inconclusive: 29.1 µM [cytotoxic, single point]
C/C(=N\NC(=O)c1cc2ccccc2cc1O)c1ccccn1	inconclusive: 0.92 µM [cytotoxic, full curve]
O=C1/C(=C\c2ccccc2)CCc2c1[nH]c1ccccc21	active: 1.3 µM
N#Cc1c(Cl)cccc1N1CCC(C(N)=O)CC1	inconclusive: 29.1 µM [cytotoxic, single point]
Nc1c(S(=O)(=O)c2ccccc2)c2nc3ccccc3nc2n1/N=C/c1cccc(O)c1	inconclusive: 29.1 µM [cytotoxic, single point]
C[C@H](CO)N1C[C@H](C)[C@@H](CN(C)Cc2ccc(Cl)c(Cl)c2)OCCCC[C@H](C)Oc2ccc(NC(=O)CCC(F)(F)F)cc2C1=O	inconclusive: 20.6 µM [cytotoxic, single point]
c1ccc2sc(NC3=NCN(C4CCCCCC4)CN3)nc2c1	inconclusive: 18.4 µM [cytotoxic, partial curve, poor fit]
COC(=O)c1ccc(C(=O)OC)c(NC(=O)CSc2cccc[n+]2[O-])c1	inconclusive: 29.1 µM [cytotoxic, single point]
CCC(=O)N1c2ccccc2CC1C(=O)NCCc1ccccc1OC (centres undefined)	inactive
Cc1ccc(S(=O)(=O)N(C)C[C@H]2Oc3ccc(NC(=O)Nc4c(C)noc4C)cc3CC(=O)N([C@@H](C)CO)C[C@@H]2C)cc1	inactive
COCCN(C(=O)c1ccccc1Oc1ccccc1)c1c(N)n(CC(C)C)c(=O)[nH]c1=O	inactive
Cn1nc(C(F)(F)F)c(C#N)c1N1CCN(c2ccccc2F)CC1	inconclusive: 23.1 µM [cytotoxic, single point]
[N-]=[N+]=NC(c1ccccc1)C(NC(=O)c1cc(C(F)(F)F)cc(C(F)(F)F)c1)c1ccccc1 (centres undefined)	inconclusive: 20.6 µM [cytotoxic, partial curve, poor fit]
CCN(CC)c1ccc2cc(-c3nnc(-c4ccccc4)o3)c(=O)oc2c1	inconclusive: 7.31 µM [cytotoxic, partial curve]
CCOC(=O)c1cnc2cc3c(cn2c1=O)CCCC3	inconclusive: 9.2 µM [rising, partial curve]
COc1cccc(OCC(=O)N2CCCc3ccccc32)c1	inactive
O=C(CSc1n[nH]c(-c2ccccn2)n1)Nc1ccc(Cl)cc1	inconclusive: 5.17 µM [cytotoxic, full curve]
COc1ccccc1S(=O)(=O)N(C)C[C@@H]1Oc2cc(C#CCC(C)C)ccc2S(=O)(=O)N([C@H](C)CO)C[C@@H]1C	inconclusive: 29.1 µM [cytotoxic, single point]
